Laboratory results from publication PMC6531468.

Amino acid sequences for entries named in this document (tags omitted). Residues count along the entry.
UniProt O00425, whole entry: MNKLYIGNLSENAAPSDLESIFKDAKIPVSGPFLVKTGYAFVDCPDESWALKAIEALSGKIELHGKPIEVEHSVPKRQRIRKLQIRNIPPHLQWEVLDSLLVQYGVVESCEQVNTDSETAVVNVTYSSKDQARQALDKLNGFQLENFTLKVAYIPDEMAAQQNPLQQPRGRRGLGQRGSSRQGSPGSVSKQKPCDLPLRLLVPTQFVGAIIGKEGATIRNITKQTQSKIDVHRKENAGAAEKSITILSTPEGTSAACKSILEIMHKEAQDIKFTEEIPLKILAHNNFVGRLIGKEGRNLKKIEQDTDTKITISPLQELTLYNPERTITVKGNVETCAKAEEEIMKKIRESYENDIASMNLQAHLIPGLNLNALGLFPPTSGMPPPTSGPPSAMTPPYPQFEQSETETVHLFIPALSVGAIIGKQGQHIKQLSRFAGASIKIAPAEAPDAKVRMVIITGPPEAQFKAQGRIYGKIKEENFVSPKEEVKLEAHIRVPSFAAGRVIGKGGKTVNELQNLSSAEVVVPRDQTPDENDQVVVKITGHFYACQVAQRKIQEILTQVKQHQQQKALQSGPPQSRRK
UniProt O00425, 1-163: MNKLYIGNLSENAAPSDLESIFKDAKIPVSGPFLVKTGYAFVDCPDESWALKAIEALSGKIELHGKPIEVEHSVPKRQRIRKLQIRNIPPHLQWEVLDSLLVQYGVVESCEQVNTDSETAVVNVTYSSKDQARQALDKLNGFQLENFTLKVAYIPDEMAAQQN
UniProt O00425, 377-579: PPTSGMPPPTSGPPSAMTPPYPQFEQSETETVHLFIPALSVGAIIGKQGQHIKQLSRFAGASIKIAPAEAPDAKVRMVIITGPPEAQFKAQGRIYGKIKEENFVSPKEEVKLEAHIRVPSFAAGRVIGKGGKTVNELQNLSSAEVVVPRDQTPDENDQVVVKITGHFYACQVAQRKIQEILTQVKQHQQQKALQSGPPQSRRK
UniProt O00425, 164-376: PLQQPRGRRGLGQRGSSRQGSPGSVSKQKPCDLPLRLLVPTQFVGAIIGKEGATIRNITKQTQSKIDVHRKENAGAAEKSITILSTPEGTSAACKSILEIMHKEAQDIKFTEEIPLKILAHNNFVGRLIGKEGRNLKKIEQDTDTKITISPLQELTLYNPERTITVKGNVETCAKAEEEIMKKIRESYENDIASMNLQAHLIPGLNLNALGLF
UniProt O00425, 164-579: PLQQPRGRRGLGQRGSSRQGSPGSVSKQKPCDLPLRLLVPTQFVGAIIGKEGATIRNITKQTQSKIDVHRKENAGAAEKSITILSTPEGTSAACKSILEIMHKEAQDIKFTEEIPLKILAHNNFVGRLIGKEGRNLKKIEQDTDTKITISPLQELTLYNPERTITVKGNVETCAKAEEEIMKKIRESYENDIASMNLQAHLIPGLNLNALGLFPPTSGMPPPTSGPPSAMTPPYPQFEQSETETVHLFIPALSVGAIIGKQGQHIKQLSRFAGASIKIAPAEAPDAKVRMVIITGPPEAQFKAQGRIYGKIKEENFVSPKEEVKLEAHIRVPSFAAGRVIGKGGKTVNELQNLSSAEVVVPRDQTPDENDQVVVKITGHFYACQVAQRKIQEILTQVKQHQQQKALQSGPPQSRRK
UniProt O00425, whole entry K213D/E214D/K294D/E295D/K423D/Q424D/K505D/G506D: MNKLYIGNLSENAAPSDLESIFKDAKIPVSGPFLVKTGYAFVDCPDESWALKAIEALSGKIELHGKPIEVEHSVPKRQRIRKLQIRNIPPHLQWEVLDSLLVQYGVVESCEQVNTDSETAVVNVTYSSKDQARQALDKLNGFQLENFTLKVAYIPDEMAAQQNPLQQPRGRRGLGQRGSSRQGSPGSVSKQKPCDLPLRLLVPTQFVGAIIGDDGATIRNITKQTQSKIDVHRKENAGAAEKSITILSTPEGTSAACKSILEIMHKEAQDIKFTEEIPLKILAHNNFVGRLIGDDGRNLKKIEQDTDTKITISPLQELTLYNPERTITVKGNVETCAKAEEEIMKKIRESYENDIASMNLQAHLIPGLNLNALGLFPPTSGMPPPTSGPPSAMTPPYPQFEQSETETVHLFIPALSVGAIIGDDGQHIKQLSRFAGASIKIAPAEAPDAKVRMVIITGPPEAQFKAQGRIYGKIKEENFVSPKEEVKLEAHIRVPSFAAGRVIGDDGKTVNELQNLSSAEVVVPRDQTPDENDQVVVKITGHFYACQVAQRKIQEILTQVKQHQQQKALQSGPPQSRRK
UniProt O00425, whole entry K423D/Q424D/K505D/G506D: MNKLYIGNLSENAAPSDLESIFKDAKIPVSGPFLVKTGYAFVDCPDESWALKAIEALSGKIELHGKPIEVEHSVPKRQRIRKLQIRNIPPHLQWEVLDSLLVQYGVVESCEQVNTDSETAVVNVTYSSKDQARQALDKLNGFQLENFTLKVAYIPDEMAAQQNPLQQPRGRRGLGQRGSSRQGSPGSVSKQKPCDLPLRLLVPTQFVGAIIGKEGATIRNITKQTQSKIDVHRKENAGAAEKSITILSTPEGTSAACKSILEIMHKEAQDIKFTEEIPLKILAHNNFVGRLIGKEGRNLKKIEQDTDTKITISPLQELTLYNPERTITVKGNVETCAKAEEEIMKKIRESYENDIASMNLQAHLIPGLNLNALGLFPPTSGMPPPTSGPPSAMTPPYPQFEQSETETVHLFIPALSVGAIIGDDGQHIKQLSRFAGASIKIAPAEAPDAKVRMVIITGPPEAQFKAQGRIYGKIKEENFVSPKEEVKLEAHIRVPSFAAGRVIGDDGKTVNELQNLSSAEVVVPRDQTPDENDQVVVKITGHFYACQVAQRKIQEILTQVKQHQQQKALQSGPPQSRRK
UniProt O00425, 2-156: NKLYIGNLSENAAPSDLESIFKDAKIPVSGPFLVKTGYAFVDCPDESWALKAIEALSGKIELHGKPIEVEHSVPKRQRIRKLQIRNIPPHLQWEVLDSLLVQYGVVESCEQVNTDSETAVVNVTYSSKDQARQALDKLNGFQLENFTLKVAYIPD
UniProt O00425, 192-355 K213D/E214D: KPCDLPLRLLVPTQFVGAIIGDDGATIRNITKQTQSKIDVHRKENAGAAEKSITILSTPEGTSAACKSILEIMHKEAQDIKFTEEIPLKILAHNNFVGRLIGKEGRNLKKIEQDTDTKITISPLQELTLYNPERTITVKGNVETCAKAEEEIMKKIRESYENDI

Key:
[1] = target: IMP3 full length (Homo sapiens) (UniProt O00425); experiment: SELEX; conditions: round 4, purified recombinant protein, residues 1-579, protein details: GST, His6, kept, only the motif is given
[2] = target: IMP3 RRM1-2 (Homo sapiens) (UniProt O00425); experiment: SELEX; conditions: round 2; purified recombinant protein; residues 1-163; protein details: GST, His6, kept; only the motif is given; counted as no binding
[3] = target: IMP3 KH3-4 (Homo sapiens) (UniProt O00425); experiment: SELEX; conditions: round 4, purified recombinant protein, residues 377-579, protein details: GST, His6, kept, only the motif is given
[4] = target: IMP3 KH1-2 (Homo sapiens) (UniProt O00425); experiment: SELEX; conditions: round 4, purified recombinant protein, residues 164-376, protein details: GST, His6, kept, only the motif is given
[5] = target: IMP3 KH1-4 (Homo sapiens) (UniProt O00425); experiment: SELEX; conditions: round 4; purified recombinant protein; residues 164-579; protein details: GST, His6, kept; only the motif is given; counted as no binding
[6] = target: IMP3 full length (Homo sapiens) (UniProt O00425); experiment: pull-down; conditions: 3'-biotin; recombinant protein; residues 1-579; label: biotin
[7] = target: endogenous IMP3 (HeLa lysate) (Homo sapiens) (UniProt O00425); experiment: pull-down; conditions: HeLa lysate; 3'-biotin; protein in an extract; label: biotin
[8] = target: IMP3 dKH1-4 K213D,E214D,K294D,E295D,K423D,Q424D,K505D,G506D (Homo sapiens) (UniProt O00425); experiment: EMSA; conditions: Hill n 1.0, value assigned from figure text order; EMSA: 10 mM Tris-HCl pH 7.5, 150 mM NaCl, 0.5 mM EDTA, 0.5 mM DTT, 0.1% NP-40, 5% glycerol, tRNA+BSA, 5 nM RNA, 30 min RT then ice; recombinant protein; protein details: GST; label: 32P-UTP
[9] = target: IMP3 dKH3-4 K423D,Q424D,K505D,G506D (Homo sapiens) (UniProt O00425); experiment: EMSA; conditions: Hill n 1.8, value assigned from figure text order; EMSA: 10 mM Tris-HCl pH 7.5, 150 mM NaCl, 0.5 mM EDTA, 0.5 mM DTT, 0.1% NP-40, 5% glycerol, tRNA+BSA, 5 nM RNA, 30 min RT then ice; recombinant protein; protein details: GST; label: 32P-UTP
[10] = target: IMP3 RRM1-2 (Homo sapiens) (UniProt O00425); experiment: NMR; conditions: recombinant protein; residues 2-156
[11] = target: IMP3 KHd1-2 K213D,E214D (Homo sapiens) (UniProt O00425); experiment: NMR; conditions: no considerable cross-reactivity; recombinant protein; protein details: Trx-His6 removed by TEV, leaves GAMA

AAAAAC [6-mer AAAAAC]
binding signal (SELEX z-score, GST-corrected) ([1]; counted as no binding): -4.1

AAAAGG [6-mer AAAAGG]
binding signal (SELEX z-score, GST-corrected) [2]: -1.68

AACGGA [6-mer AACGGA]
binding signal (SELEX z-score, GST-corrected) ([1]; counted as no binding): -0.78

AACGGG [6-mer AACGGG]
binding signal (SELEX z-score, GST-corrected) ([1]; counted as no binding): -0.503

AAGAAU [6-mer AAGAAT]
binding signal (SELEX z-score, GST-corrected) [2]: -1.36

AAGACG [6-mer AAGACG]
binding signal (SELEX z-score, GST-corrected) ([1]; counted as no binding): -0.913

AAGCCA [6-mer AAGCCA]
binding signal (SELEX z-score, GST-corrected) [2]: -0.6

AAGGAU [6-mer AAGGAT]
binding signal (SELEX z-score, GST-corrected) [2]: -0.57

ACCCAG [6-mer ACCCAG]
binding signal (SELEX z-score, GST-corrected) [1]: -1.5

ACCCCG [6-mer ACCCCG]
binding signal (SELEX z-score, GST-corrected) ([1]; counted as no binding): -0.843

ACCCCU [6-mer ACCCCT]
binding signal (SELEX z-score, GST-corrected) [2]: -0.501

ACCCGU [6-mer ACCCGT]
binding signal (SELEX z-score, GST-corrected) ([3]; counted as no binding): -1.33

ACCUAA [6-mer ACCTAA]
binding signal (SELEX z-score, GST-corrected) [4]: -1.97 | binding signal (SELEX z-score, GST-corrected) [3]: -2.12

ACCUGC [6-mer ACCTGC]
binding signal (SELEX z-score, GST-corrected) ([1]; counted as no binding): -1.28

ACGCCU [6-mer ACGCCT]
binding signal (SELEX z-score, GST-corrected) ([1]; counted as no binding): -0.624

ACUCGC [6-mer ACTCGC]
binding signal (SELEX z-score, GST-corrected) ([4]; counted as no binding): -0.633

ACUGAG [6-mer ACTGAG]
binding signal (SELEX z-score, GST-corrected) ([4]; counted as no binding): -1.19

ACUGCG [6-mer ACTGCG]
binding signal (SELEX z-score, GST-corrected) ([4]; counted as no binding): -0.544

ACUUGC [6-mer ACTTGC]
binding signal (SELEX z-score, GST-corrected) [3]: -0.501

AGACCG [6-mer AGACCG]
binding signal (SELEX z-score, GST-corrected) [5]: -1.12

AGCCAA [6-mer AGCCAA]
binding signal (SELEX z-score, GST-corrected) [5]: -1.46

AGGAGC [6-mer AGGAGC]
binding signal (SELEX z-score, GST-corrected) [5]: -0.719

AGUAUC [6-mer AGTATC]
binding signal (SELEX z-score, GST-corrected) [5]: -0.555

AUAAGA [6-mer ATAAGA]
binding signal (SELEX z-score, GST-corrected) [2]: -0.916

AUACCG [6-mer ATACCG]
binding signal (SELEX z-score, GST-corrected) [2]: -0.639

AUGACG [6-mer ATGACG]
binding signal (SELEX z-score, GST-corrected) [2]: -0.691

AUUAAA [6-mer ATTAAA]
binding signal (SELEX z-score, GST-corrected) [2]: -0.759

AUUGAC [6-mer ATTGAC]
binding signal (SELEX z-score, GST-corrected) [2]: -0.535

CAAGCG [6-mer CAAGCG]
binding signal (SELEX z-score, GST-corrected) [5]: -2.09

CAGCCC [6-mer CAGCCC]
binding signal (SELEX z-score, GST-corrected) [5]: -0.504

CAGCGC [6-mer CAGCGC]
binding signal (SELEX z-score, GST-corrected) [5]: -1.26

CCAACU [6-mer CCAACT]
binding signal (SELEX z-score, GST-corrected) ([3]; counted as no binding): -1.2

CCCAAU [6-mer CCCAAT]
binding signal (SELEX z-score, GST-corrected) ([3]; counted as no binding): -1.74

CCCACC [6-mer CCCACC]
binding signal (SELEX z-score, GST-corrected) ([4]; counted as no binding): -1.37

CCCAGG [6-mer CCCAGG]
binding signal (SELEX z-score, GST-corrected) ([1]; counted as no binding): -0.718

CCCUGG [6-mer CCCTGG]
binding signal (SELEX z-score, GST-corrected) [5]: -0.794

CCGAAU [6-mer CCGAAT]
binding signal (SELEX z-score, GST-corrected) ([4]; counted as no binding): -0.69

CCGAUC [6-mer CCGATC]
binding signal (SELEX z-score, GST-corrected) ([4]; counted as no binding): -1.05

CGACCG [6-mer CGACCG]
binding signal (SELEX z-score, GST-corrected) [5]: -1.73

CGACUG [6-mer CGACTG]
binding signal (SELEX z-score, GST-corrected) ([3]; counted as no binding): -0.985

CGACUU [6-mer CGACTT]
binding signal (SELEX z-score, GST-corrected) ([1]; counted as no binding): -0.545

CGUAGC [6-mer CGTAGC]
binding signal (SELEX z-score, GST-corrected) ([1]; counted as no binding): -0.989

CGUCAC [6-mer CGTCAC]
binding signal (SELEX z-score, GST-corrected) ([3]; counted as no binding): -0.905

CGUUUC [6-mer CGTTTC]
binding signal (SELEX z-score, GST-corrected) [5]: -0.606

CUACCU [6-mer CTACCT]
binding signal (SELEX z-score, GST-corrected) ([4]; counted as no binding): -0.824

CUACGA [6-mer CTACGA]
binding signal (SELEX z-score, GST-corrected) [5]: -0.854

CUCCAA [6-mer CTCCAA]
binding signal (SELEX z-score, GST-corrected) ([4]; counted as no binding): -0.751

CUCCCC [6-mer CTCCCC]
binding signal (SELEX z-score, GST-corrected) ([1]; counted as no binding): -0.661

CUCUUG [6-mer CTCTTG]
binding signal (SELEX z-score, GST-corrected) [5]: -0.659

CUGAGC [6-mer CTGAGC]
binding signal (SELEX z-score, GST-corrected) ([1]; counted as no binding): -1.87

GAAAAA [6-mer GAAAAA]
binding signal (SELEX z-score, GST-corrected) [2]: -3.53

GAACCC [6-mer GAACCC]
binding signal (SELEX z-score, GST-corrected) ([4]; counted as no binding): -1.64

GACCUU [6-mer GACCTT]
binding signal (SELEX z-score, GST-corrected) ([3]; counted as no binding): -0.679

GACUCC [6-mer GACTCC]
binding signal (SELEX z-score, GST-corrected) ([4]; counted as no binding): -0.591

GAGAGC [6-mer GAGAGC]
binding signal (SELEX z-score, GST-corrected) ([3]; counted as no binding): -1.08

GAGCGG [6-mer GAGCGG]
binding signal (SELEX z-score, GST-corrected) ([3]; counted as no binding): -0.557

GAUAAC [6-mer GATAAC]
binding signal (SELEX z-score, GST-corrected) [2]: -1

GCCCAU [6-mer GCCCAT]
binding signal (SELEX z-score, GST-corrected) ([3]; counted as no binding): -0.816

GCGAAG [6-mer GCGAAG]
binding signal (SELEX z-score, GST-corrected) ([3]; counted as no binding): -0.762

GCGAGC [6-mer GCGAGC]
binding signal (SELEX z-score, GST-corrected) ([3]; counted as no binding): -1.49

GGAACC [6-mer GGAACC]
binding signal (SELEX z-score, GST-corrected) [2]: -0.833

GGAGAA [6-mer GGAGAA]
binding signal (SELEX z-score, GST-corrected) [2]: -1.08

GGGAAA [6-mer GGGAAA]
binding signal (SELEX z-score, GST-corrected) [2]: -1.19

GGGAGGGAGGAAGGCAAUUUUGGAGGAACUACAGAACACAUAUCGCAGCUAAAACACAAUUUUGGAGGAACUACAGAAUGCGGCUAUCCACACACAAAGGG [101-mer, 3'-biotin]
binding result [6]: binds | binding result [7]: binds

GGGAGGGAGGAAGGCAAUUUUGGAGGAACUACAGAACACAUAUCGCAGCUAAAACACAAUUUUGGAGGAACUACAGAAUGCGGCUAUCCACACACAAAGGG [101-mer]
Kd [8]: 118 nM | Kd [9]: 33.4 nM

GUGUGUGUGU [(GU)5]
binding result [10]: binds more weakly

UAAAAA [6-mer TAAAAA]
binding signal (SELEX z-score, GST-corrected) ([4]; counted as no binding): -0.501

UAGAGC [6-mer TAGAGC]
binding signal (SELEX z-score, GST-corrected) ([1]; counted as no binding): -1.08

UCGGCAC [GGC (CGG) 7-mer]
binding result [11]: no binding

UGAACC [6-mer TGAACC]
binding signal (SELEX z-score, GST-corrected) ([4]; counted as no binding): -0.889

UGAGCG [6-mer TGAGCG]
binding signal (SELEX z-score, GST-corrected) ([4]; counted as no binding): -5.22 | binding signal (SELEX z-score, GST-corrected) [5]: -5.45 | binding signal (SELEX z-score, GST-corrected) ([3]; counted as no binding): -4.9

UGCACC [6-mer TGCACC]
binding signal (SELEX z-score, GST-corrected) ([3]; counted as no binding): -0.615

UGCCCU [6-mer TGCCCT]
binding signal (SELEX z-score, GST-corrected) [5]: -1.01

UUAAAG [6-mer TTAAAG]
binding signal (SELEX z-score, GST-corrected) ([1]; counted as no binding): -0.585

UUGACG [6-mer TTGACG]
binding signal (SELEX z-score, GST-corrected) ([4]; counted as no binding): -0.96 | binding signal (SELEX z-score, GST-corrected) [5]: -0.923

For part of these data: No signal at the amounts used counts as a negative. For part of these data: At least one verdict was read from the data and is not stated in words by the source. For part of these data: The comparison behind a weaker result is the experiment's own reference, which may not be listed here. For part of these data: Construct, isoform or probe ends are uncertain for at least one entry. For part of these data: Where cells or extracts were used, other partners may take part. For part of these data: The direction of at least one scale is not stated here.
